Cleaved PARP after 72 h of treatment

Source: doi:10.1371/journal.pone.0140310, primary screening data, rounded.

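Human melanoma cells were exposed to a pair of drugs for 72 h in 1,536-well plates and read by automated microscopy after fixing and staining. Values are the share of nuclei positive for cleaved PARP as a percentage of the same share in the DMSO control: 100 is the control level, higher means more apoptosis. Concentrations were fixed for each drug; these are the higher of two levels. These are primary screening values without error estimates. Basal and induced levels differ widely between cell lines.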 This is part of the screen, not chosen by result.

Drugs:
sorafenib, 2 µM: CNC(=O)c1cc(Oc2ccc(NC(=O)Nc3ccc(Cl)c(C(F)(F)F)c3)cc2)ccn1
pazopanib, 2 µM: Cc1ccc(Nc2nccc(N(C)c3ccc4c(C)n(C)nc4c3)n2)cc1S(N)(=O)=O
midostaurin, 0.4 µM: CO[C@@H]1[C@H](N(C)C(=O)c2ccccc2)C[C@H]2O[C@]1(C)n1c3ccccc3c3c4c(c5c6ccccc6n2c5c31)C(=O)NC4
TCS401, 8.33 µM: O=C(O)C(=O)Nc1sc2c(c1C(=O)O)CCNC2
CP-690550, 5 µM: C[C@@H]1CCN(C(=O)CC#N)C[C@@H]1N(C)c1ncnc2[nH]ccc12
XAV939, 10 µM: Oc1nc(-c2ccc(C(F)(F)F)cc2)nc2c1CSCC2
GW9662, 10 µM: O=C(Nc1ccccc1)c1cc([N+](=O)[O-])ccc1Cl
AZD7762, 0.1 µM: NC(=O)Nc1cc(-c2cccc(F)c2)sc1C(=O)N[C@H]1CCCNC1
pioglitazone, 10 µM: CCc1ccc(CCOc2ccc(CC3SC(=O)NC3=O)cc2)nc1 (stereo not drawn)

Combination	WM451Lu
sorafenib + XAV939	270
GW9662 + sorafenib	116
pioglitazone + sorafenib	82.4
CP-690550 + pazopanib	143
pioglitazone + TCS401	89.5
midostaurin + GW9662	349
pazopanib + sorafenib	75.1
CP-690550 + midostaurin	639
GW9662 + pazopanib	172
GW9662 + pioglitazone	243
XAV939 + pioglitazone	297
CP-690550 + sorafenib	64.4
pazopanib + midostaurin	305
TCS401 + AZD7762	141
CP-690550 + GW9662	153
sorafenib + AZD7762	222
midostaurin + sorafenib	149
pazopanib + AZD7762	124
pioglitazone + pazopanib	55.7
CP-690550 + TCS401	57.9
midostaurin + XAV939	155
AZD7762 + pioglitazone	380
pioglitazone + CP-690550	198
AZD7762 + XAV939	60.7
GW9662 + XAV939	67.5
GW9662 + AZD7762	701
XAV939 + TCS401	125
pazopanib + TCS401	40.5
midostaurin + pioglitazone	386
pazopanib + XAV939	54.9
midostaurin + AZD7762	269
XAV939 + CP-690550	240
GW9662 + TCS401	94.2
sorafenib + TCS401	9.1
midostaurin + TCS401	26.3

Repeated from the top, 4 entries:

| Combination | WM451Lu |
|---|---|
| sorafenib + XAV939 | 270 |
| GW9662 + sorafenib | 116 |
| pioglitazone + sorafenib | 82.4 |
| CP-690550 + pazopanib | 143 |